Measurements: publication PMC8494857
No constants are given. Whether binding was seen depends on the method and setting. Binding seen in cells or lysates may run through a third protein. A yes stands for co-enrichment or nearness to the bait. Other partners may have been found. Where a sequence is shown, tags or fusion partners need not be part of it.

By UniProt entry, the sequences of proteins in these tests, tags left out. Residues count along the entry.
UniProt Q03135: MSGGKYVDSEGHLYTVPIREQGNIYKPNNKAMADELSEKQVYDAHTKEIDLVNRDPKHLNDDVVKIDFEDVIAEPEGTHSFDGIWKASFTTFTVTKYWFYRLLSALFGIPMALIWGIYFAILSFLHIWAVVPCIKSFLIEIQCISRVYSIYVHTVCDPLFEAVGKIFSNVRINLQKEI
UniProt Q15075: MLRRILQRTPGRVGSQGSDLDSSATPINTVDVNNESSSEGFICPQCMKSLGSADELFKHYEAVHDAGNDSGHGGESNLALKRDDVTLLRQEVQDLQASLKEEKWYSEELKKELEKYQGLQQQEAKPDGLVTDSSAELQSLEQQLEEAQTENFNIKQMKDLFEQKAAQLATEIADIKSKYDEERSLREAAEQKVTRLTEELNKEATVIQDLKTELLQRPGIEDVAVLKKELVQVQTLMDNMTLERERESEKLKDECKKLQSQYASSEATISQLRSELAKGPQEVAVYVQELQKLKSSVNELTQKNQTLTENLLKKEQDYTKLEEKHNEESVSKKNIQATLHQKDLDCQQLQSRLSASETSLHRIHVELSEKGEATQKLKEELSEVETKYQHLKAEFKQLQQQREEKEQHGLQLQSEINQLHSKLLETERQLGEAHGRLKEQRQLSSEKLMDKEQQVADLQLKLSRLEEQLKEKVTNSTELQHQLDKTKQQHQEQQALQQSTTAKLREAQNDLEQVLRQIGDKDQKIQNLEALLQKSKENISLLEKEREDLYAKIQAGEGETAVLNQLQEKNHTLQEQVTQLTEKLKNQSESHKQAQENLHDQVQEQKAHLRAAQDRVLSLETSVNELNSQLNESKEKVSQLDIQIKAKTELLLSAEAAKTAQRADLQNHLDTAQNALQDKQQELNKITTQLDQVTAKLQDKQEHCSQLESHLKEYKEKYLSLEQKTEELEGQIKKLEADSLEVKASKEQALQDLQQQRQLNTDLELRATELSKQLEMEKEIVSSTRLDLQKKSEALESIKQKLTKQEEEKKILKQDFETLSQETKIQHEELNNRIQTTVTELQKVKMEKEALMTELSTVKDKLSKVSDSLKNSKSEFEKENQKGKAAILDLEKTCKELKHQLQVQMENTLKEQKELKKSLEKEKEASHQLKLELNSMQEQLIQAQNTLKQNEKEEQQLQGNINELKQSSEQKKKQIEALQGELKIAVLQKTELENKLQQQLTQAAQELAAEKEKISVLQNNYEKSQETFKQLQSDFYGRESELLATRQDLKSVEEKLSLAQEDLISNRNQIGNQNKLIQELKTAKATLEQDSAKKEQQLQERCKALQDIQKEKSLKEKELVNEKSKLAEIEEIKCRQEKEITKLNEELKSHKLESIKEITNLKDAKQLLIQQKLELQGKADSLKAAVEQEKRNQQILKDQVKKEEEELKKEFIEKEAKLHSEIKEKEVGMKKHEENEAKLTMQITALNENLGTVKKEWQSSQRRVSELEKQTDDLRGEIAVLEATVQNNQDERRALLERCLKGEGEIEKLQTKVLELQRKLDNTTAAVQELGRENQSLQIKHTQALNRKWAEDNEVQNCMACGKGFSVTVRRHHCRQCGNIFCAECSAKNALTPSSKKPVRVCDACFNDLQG
UniProt Q99961: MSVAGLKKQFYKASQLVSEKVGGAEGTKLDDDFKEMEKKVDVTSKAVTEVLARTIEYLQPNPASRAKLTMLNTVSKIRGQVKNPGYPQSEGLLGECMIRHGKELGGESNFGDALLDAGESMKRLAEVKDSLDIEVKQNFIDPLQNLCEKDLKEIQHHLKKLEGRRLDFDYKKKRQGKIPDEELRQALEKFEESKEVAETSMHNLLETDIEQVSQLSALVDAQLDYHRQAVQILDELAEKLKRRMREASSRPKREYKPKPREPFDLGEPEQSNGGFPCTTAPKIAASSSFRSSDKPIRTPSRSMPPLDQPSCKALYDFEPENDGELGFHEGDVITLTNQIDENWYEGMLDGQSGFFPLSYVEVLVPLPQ
UniProt Q5JRA6, residues 23-1907: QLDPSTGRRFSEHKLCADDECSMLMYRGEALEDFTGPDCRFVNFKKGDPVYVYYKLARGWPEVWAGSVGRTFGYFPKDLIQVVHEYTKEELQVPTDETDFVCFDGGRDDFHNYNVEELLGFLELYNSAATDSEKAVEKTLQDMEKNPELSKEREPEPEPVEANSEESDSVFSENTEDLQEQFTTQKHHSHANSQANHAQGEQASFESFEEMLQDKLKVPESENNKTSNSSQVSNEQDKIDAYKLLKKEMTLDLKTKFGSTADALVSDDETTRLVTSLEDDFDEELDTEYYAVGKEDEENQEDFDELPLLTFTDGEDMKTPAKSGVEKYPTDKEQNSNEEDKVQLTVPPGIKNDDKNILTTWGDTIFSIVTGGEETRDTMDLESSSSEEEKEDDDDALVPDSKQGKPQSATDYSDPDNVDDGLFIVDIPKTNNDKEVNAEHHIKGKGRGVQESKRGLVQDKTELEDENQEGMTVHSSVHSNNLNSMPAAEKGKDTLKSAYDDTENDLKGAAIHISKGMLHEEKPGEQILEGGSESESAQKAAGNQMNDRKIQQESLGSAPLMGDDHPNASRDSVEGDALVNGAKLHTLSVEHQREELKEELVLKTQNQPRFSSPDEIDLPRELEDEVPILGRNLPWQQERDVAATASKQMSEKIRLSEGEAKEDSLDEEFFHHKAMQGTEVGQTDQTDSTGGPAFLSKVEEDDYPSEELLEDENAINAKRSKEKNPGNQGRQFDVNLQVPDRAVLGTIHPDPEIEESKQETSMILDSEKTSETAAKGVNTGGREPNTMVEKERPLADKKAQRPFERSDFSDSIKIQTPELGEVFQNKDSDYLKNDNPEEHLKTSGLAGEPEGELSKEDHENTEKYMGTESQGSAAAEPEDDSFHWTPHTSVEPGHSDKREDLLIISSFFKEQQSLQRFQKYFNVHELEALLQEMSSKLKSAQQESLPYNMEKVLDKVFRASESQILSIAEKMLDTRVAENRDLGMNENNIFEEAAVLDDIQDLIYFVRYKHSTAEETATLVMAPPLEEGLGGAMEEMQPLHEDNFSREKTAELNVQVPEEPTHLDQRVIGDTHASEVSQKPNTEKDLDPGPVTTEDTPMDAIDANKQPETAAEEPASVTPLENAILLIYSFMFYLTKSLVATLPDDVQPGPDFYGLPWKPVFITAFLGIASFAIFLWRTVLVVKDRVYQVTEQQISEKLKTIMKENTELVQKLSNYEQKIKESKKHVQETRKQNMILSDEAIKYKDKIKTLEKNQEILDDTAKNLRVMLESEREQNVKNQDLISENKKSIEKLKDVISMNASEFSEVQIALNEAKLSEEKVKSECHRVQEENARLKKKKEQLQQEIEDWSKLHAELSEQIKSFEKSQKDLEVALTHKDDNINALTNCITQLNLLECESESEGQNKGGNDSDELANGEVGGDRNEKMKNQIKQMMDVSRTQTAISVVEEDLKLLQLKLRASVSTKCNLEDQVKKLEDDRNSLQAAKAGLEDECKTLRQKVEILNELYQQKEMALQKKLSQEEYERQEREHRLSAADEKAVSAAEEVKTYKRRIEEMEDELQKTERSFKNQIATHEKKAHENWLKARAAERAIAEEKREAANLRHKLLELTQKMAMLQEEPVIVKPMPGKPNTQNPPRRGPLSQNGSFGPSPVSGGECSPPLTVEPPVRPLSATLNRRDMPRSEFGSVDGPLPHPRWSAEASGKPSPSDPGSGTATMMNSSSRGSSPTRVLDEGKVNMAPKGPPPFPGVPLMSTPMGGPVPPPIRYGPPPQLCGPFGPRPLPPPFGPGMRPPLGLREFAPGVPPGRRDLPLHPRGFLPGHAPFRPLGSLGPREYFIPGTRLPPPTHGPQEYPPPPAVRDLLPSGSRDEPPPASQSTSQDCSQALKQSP
UniProt P26038: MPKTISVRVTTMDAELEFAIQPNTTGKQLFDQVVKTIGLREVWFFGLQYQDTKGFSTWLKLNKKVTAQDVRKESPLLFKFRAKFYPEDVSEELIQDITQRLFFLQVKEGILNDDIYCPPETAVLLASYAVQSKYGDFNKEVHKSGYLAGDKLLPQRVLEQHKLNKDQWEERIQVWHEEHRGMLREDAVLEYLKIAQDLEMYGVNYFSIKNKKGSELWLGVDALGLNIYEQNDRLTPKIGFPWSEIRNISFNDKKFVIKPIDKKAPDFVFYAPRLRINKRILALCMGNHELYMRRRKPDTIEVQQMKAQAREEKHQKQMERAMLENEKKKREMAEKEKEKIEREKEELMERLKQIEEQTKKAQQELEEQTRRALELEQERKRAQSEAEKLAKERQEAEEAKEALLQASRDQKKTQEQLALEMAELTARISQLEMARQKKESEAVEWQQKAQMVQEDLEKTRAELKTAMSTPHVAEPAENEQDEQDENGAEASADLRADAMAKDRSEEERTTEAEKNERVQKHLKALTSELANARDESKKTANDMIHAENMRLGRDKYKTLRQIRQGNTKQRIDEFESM
UniProt Q8WUM4: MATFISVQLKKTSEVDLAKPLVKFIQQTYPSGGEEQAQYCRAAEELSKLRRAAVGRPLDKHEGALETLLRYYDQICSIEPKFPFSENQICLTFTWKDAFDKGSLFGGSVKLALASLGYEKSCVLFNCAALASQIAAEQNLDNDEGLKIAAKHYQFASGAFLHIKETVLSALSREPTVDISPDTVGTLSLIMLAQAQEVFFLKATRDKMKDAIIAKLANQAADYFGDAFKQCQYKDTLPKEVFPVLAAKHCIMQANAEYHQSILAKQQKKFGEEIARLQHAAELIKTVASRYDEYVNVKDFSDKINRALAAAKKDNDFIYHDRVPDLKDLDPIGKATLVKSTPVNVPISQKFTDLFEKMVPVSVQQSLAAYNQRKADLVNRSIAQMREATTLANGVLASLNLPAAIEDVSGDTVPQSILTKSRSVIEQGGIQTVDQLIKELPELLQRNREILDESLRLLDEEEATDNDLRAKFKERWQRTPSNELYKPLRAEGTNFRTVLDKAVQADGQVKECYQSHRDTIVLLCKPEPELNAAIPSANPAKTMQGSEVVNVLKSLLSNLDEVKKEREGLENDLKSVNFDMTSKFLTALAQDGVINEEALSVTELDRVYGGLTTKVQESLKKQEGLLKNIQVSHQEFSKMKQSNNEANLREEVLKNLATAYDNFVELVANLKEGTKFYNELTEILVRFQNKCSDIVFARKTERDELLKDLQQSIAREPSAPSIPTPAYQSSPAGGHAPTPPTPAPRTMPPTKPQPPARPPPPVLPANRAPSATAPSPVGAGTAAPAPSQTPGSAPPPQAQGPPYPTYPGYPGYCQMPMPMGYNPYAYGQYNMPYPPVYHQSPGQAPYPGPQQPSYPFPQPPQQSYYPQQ
UniProt O95782: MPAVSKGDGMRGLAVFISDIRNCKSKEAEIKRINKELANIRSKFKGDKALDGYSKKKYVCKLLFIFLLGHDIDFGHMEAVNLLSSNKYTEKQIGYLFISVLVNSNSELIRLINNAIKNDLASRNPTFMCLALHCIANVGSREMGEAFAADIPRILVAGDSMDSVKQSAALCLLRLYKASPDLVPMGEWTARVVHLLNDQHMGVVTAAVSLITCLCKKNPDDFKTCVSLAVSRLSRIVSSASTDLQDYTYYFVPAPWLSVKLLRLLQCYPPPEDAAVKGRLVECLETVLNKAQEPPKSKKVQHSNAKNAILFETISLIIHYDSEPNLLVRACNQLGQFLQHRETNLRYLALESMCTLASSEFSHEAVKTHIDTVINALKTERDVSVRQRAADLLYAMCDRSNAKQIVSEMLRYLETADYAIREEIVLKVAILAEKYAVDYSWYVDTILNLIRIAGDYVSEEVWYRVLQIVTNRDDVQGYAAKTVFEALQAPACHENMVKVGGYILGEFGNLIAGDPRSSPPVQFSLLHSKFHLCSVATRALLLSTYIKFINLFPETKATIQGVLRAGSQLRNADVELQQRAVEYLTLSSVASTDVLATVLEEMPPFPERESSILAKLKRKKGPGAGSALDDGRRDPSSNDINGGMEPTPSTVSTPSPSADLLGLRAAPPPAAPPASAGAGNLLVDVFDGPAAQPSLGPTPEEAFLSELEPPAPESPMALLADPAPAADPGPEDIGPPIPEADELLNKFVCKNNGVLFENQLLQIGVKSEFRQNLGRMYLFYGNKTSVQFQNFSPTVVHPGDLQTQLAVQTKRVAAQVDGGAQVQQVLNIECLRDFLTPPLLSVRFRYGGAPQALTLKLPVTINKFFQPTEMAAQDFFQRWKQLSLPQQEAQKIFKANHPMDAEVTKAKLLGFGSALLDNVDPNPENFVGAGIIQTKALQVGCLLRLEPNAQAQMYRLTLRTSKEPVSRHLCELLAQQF
UniProt O43617: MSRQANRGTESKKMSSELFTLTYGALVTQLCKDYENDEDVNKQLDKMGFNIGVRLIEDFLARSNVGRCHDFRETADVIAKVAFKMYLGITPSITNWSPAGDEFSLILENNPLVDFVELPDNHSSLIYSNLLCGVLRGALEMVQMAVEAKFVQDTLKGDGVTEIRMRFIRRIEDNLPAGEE

Molecular target: PEA-15 (Phosphoprotein Enriched in Astrocytes of 15 kDa) (human (endogenous in U87MG)) (UniProt Q15121)
Test: affinity purification with mass spectrometry; endogenous PEA-15 precipitated with anti-PEA15 antibodies from whole cell lysates of U87MG (serum starved, then EGF or vehicle); SDS-PAGE, in-gel trypsin digest, LC-MS/MS; IgG alone as control

| Molecule | binding |
| --- | --- |
| Caveolin-1 (from UniProt Q03135 1-178) | binds |
| ELKS/Rab6-interacting/CAST family member 1 (from UniProt Q8IUD2 1-1116) | binds |
| Early endosome antigen 1 (from UniProt Q15075 1-1411) | binds |
| Filamin-A (from UniProt P21333 1-2647) | binds |
| Endophilin-A2 (from UniProt Q99961 1-368) | binds |
| Transport and Golgi organization protein 1 homolog (from UniProt Q5JRA6 23-1907) | binds |
| Moesin (from UniProt P26038 1-577) | binds |
| Filamin-C (from UniProt Q14315 1-2725) | binds |
| Filamin-B (from UniProt O75369 1-2602) | binds |
| AP-2 complex subunit beta (from UniProt P63010 1-937) | binds |
| Cortactin (from UniProt Q14247 1-550) | binds |
| Dynactin subunit 1 (from UniProt Q14203 1-1278) | binds |
| Programmed cell death 6 -interacting protein (from UniProt Q8WUM4 1-868) | binds |
| Alpha-taxilin (from UniProt P40222 1-546) | binds |
| Talin-1 (from UniProt Q9Y490 1-2541) | binds |
| Sorting nexin-9 (from UniProt Q9Y5X1 1-595) | binds |
| Integrin beta-1 (from UniProt P05556 21-798) (receptor) | binds |
| Heat Shock 70 kDa Protein 8 (from UniProt P11142 1-646) | binds |
| Talin-2 (from UniProt Q9Y4G6 1-2542) | binds |
| Clathrin heavy chain 1 (from UniProt Q00610 1-1675) | binds |
| AP-2 complex subunit alpha-1 (from UniProt O95782 1-977) | binds |
| Trafficking protein particle complex subunit 3 (from UniProt O43617 1-180) | binds |
| General vesicular transport factor p115 (protein, UniProt O60763 1-962) MNFLRGVMGGQSAGPQHTEAETIQKLCDRVASSTLLDDRRNAVRALKSLSKKYRLEVGIQAMEHLIHVLQTDRSDSEIIGYALDTLYNIISNEEEEEVEENSTRQSEDLGSQFTEIFIKQQENVTLLLSLLEEFDFHVRWPGVKLLTSLLKQLGPQVQQIILVSPMGVSRLMDLLADSREVIRNDGVLLLQALTRSNGAIQKIVAFENAFERLLDIISEEGNSDGGIVVEDCLILLQNLLKNNNSNQNFFKEGSYIQRMKPWFEVGDENSGWSAQKVTNLHLMLQLVRVLVSPTNPPGATSSCQKAMFQCGLLQQLCTILMATGVPADILTETINTVSEVIRGCQVNQDYFASVNAPSNPPRPAIVVLLMSMVNERQPFVLRCAVLYCFQCFLYKNQKGQGEIVSTLLPSTIDATGNSVSAGQLLCGGLFSTDSLSNWCAAVALAHALQENATQKEQLLRVQLATSIGNPPVSLLQQCTNILSQGSKIQTRVGLLMLLCTWLSNCPIAVTHFLHNSANVPFLTGQIAENLGEEEQLVQGLCALLLGISIYFNDNSLESYMKEKLKQLIEKRIGKENFIEKLGFISKHELYSRASQKPQPNFPSPEYMIFDHEFTKLVKELEGVITKAIYKSSEEDKKEEEVKKTLEQHDNIVTHYKNMIREQDLQLEELRQQVSTLKCQNEQLQTAVTQQVSQIQQHKDQYNLLKIQLGKDNQHQGSYSEGAQMNGIQPEEIGRLREEIEELKRNQELLQSQLTEKDSMIENMKSSQTSGTNEQSSAIVSARDSEQVAELKQELATLKSQLNSQSVEITKLQTEKQELLQKTEAFAKSVEVQGETETIIATKTTDVEGRLSALLQETKELKNEIKALSEERTAIKEQLDSSNSTIAILQTEKDKLELEITDSKKEQDDLLVLLADQDQKILSLKNKLKDLGHPVEEEDELESGDQEDEDDESEDPGKDLDHI | binds |
| Alpha-soluble NSF attachment protein (protein, UniProt P54920 1-295) MDNSGKEAEAMALLAEAERKVKNSQSFFSGLFGGSSKIEEACEIYARAANMFKMAKNWSAAGNAFCQAAQLHLQLQSKHDAATCFVDAGNAFKKADPQEAINCLMRAIEIYTDMGRFTIAAKHHISIAEIYETELVDIEKAIAHYEQSADYYKGEESNSSANKCLLKVAGYAALLEQYQKAIDIYEQVGTNAMDSPLLKYSAKDYFFKAALCHFCIDMLNAKLAVQKYEELFPAFSDSRECKLMKKLLEAHEEQNVDSYTESVKEYDSISRLDQWLTTMLLRIKKTIQGDEEDLR | binds |
| Clathrin light chain A (protein, UniProt P09496 1-248) MAELDPFGAPAGAPGGPALGNGVAGAGEEDPAAAFLAQQESEIAGIENDEAFAILDGGAPGPQPHGEPPGGPDAVDGVMNGEYYQESNGPTDSYAAISQVDRLQSEPESIRKWREEQMERLEALDANSRKQEAEWKEKAIKELEEWYARQDEQLQKTKANNRVADEAFYKQPFADVIGYVTNINHPCYSLEQAAEEAFVNDIDESSPGTEWERVARLCDFNPKSSKQAKDVSRMRSVLISLKQAPLVH | binds |
| Charged multivesicular body protein 4b (protein, UniProt Q9H444 1-224) MSVFGKLFGAGGGKAGKGGPTPQEAIQRLRDTEEMLSKKQEFLEKKIEQELTAAKKHGTKNKRAALQALKRKKRYEKQLAQIDGTLSTIEFQREALENANTNTEVLKNMGYAAKAMKAAHDNMDIDKVDELMQDIADQQELAEEISTAISKPVGFGEEFDEDELMAELEELEQEELDKNLLEISGPETVPLPNVPSIALPSKPAKKKEEEDDDMKELENWAGSM | binds |
| Amphiphysin II (Myc box-dependent-interacting protein 1) (protein, UniProt O00499 1-593) MAEMGSKGVTAGKIASNVQKKLTRAQEKVLQKLGKADETKDEQFEQCVQNFNKQLTEGTRLQKDLRTYLASVKAMHEASKKLNECLQEVYEPDWPGRDEANKIAENNDLLWMDYHQKLVDQALLTMDTYLGQFPDIKSRIAKRGRKLVDYDSARHHYESLQTAKKKDEAKIAKPVSLLEKAAPQWCQGKLQAHLVAQTNLLRNQAEEELIKAQKVFEEMNVDLQEELPSLWNSRVGFYVNTFQSIAGLEENFHKEMSKLNQNLNDVLVGLEKQHGSNTFTVKAQPSDNAPAKGNKSPSPPDGSPAATPEIRVNHEPEPAGGATPGATLPKSPSQLRKGPPVPPPPKHTPSKEVKQEQILSLFEDTFVPEISVTTPSQFEAPGPFSEQASLLDLDFDPLPPVTSPVKAPTPSGQSIPWDLWEPTESPAGSLPSGEPSAAEGTFAVSWPSQTAEPGPAQPAEASEVAGGTQPAAGAQEPGETAASEAASSSLPAVVVETFPATVNGTVEGGSGAGRLDLPPGFMFKVQAQHDYTATDTDELQLKAGDVVLVIPFQNPEEQDEGWLMGVKESDWNQHKELEKCRGVFPENFTERVP | binds |
